Measured values taken from the supplement of paper PMC12823440, “Inhibitors supercharge kinase turnover through native proteolytic circuits” (Nature, 2025).
Counter-ions that a name gives are not always drawn. Some of the results follow. Hit calls seldom repeat between salt and free forms of one compound.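 In K562 cells expressing nanoluciferase-fused kinases, luminescence was recorded at 4 h intervals between 2 and 18 h, normalized as percent of control with DMSO at 100% and a positive control at 0%. A significant (2 sigma) signal drop marks a time point as decreased. The authors' rule for a hit is not shown and takes in more than the number of time points.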

Sequences of proteins named here, by UniProt entry; tags and fusion partners are left off. A change or cut given only in a name is not applied to a line headed by its entry.
UniProt Q06187: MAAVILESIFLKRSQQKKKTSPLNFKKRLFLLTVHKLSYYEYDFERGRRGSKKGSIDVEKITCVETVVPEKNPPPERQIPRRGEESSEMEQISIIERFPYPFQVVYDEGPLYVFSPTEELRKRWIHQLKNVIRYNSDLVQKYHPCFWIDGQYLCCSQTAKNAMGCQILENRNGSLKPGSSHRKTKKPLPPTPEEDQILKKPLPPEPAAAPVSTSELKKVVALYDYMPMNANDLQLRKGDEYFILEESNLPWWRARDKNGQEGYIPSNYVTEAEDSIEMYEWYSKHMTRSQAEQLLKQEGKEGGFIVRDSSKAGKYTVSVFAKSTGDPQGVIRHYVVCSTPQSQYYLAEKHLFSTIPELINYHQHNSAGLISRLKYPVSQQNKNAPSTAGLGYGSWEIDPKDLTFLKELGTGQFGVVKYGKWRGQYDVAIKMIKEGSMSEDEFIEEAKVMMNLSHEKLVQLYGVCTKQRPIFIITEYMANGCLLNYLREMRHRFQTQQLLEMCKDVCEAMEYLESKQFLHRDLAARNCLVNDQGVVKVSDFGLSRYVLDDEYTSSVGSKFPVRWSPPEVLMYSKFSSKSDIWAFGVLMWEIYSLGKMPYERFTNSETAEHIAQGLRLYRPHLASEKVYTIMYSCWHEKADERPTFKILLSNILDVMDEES
UniProt Q9UQM7, whole entry: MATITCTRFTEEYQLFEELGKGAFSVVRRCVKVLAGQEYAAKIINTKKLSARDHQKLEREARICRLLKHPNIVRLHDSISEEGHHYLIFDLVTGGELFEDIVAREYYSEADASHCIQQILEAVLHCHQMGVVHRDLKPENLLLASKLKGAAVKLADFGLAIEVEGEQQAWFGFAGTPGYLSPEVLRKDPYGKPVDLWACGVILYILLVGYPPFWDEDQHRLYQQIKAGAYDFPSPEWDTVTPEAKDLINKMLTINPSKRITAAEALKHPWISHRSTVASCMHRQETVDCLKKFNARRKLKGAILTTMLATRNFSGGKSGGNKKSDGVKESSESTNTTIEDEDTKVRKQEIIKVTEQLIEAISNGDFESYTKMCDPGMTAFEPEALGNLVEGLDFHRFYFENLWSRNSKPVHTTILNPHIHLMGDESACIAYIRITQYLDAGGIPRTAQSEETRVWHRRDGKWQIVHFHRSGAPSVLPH
UniProt Q13555: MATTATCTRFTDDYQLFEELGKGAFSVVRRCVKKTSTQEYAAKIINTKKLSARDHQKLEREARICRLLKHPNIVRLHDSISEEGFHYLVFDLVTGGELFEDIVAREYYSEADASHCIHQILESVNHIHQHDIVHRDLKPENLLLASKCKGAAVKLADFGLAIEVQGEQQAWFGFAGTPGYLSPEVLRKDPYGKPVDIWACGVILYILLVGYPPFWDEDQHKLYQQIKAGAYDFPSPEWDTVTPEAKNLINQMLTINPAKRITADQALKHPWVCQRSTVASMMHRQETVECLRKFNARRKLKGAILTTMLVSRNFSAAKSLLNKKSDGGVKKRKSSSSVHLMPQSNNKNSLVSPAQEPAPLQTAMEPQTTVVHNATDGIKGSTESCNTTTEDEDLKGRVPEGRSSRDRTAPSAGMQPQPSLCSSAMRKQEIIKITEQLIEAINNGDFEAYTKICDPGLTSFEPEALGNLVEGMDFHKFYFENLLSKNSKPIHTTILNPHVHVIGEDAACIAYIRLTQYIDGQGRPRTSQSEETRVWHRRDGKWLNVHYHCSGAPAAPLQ
UniProt Q15131: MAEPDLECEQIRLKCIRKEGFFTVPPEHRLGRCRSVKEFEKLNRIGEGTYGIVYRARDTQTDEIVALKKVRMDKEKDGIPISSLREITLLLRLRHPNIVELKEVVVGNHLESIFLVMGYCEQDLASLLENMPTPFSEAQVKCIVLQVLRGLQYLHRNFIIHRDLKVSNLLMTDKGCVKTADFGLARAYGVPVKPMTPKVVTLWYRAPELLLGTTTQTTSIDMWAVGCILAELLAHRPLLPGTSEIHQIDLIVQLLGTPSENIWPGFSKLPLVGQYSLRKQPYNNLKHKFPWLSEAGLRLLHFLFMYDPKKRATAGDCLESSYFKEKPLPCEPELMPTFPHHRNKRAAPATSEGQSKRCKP
UniProt Q00526: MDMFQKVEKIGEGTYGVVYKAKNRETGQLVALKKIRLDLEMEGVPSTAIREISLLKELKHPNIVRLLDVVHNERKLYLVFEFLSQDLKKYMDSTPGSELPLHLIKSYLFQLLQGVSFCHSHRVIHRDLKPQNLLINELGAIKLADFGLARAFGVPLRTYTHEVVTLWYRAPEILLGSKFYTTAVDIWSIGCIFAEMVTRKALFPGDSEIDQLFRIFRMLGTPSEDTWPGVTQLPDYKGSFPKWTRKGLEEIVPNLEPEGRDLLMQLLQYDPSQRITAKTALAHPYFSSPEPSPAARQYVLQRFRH
UniProt P11802: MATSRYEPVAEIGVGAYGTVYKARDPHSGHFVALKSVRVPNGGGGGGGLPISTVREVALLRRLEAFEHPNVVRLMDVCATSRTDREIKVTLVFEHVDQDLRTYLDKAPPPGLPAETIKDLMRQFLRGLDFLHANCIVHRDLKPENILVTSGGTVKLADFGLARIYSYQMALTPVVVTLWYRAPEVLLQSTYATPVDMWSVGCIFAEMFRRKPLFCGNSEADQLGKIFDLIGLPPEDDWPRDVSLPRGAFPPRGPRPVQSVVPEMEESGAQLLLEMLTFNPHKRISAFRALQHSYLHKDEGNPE
UniProt Q00535, whole entry, looked up: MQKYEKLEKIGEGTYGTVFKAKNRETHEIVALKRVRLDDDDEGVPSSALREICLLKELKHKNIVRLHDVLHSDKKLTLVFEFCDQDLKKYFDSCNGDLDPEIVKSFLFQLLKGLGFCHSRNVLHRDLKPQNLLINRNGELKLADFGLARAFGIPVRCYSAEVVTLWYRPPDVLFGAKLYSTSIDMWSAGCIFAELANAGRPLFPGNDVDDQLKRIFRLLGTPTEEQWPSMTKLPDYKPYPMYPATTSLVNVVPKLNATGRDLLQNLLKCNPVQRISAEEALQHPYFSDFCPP
UniProt Q00534, whole entry: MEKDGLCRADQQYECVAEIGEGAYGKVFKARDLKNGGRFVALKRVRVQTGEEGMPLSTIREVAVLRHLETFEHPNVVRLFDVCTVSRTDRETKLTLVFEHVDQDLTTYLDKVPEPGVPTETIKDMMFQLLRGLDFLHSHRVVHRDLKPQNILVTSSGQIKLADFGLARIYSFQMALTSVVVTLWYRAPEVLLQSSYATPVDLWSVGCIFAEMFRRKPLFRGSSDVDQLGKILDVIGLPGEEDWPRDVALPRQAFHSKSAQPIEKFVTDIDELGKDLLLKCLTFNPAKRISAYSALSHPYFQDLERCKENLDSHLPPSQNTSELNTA
UniProt P50750, whole entry: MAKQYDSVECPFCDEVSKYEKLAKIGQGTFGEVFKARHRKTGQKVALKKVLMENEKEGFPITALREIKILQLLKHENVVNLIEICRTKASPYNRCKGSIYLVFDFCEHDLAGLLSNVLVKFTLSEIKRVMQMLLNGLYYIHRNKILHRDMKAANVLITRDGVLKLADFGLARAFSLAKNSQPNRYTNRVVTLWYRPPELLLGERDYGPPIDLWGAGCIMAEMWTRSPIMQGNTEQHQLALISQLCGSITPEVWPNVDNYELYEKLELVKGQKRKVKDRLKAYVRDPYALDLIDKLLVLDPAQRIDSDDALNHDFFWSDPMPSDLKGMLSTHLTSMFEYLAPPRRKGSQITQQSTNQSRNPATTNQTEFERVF
UniProt O96017, whole entry: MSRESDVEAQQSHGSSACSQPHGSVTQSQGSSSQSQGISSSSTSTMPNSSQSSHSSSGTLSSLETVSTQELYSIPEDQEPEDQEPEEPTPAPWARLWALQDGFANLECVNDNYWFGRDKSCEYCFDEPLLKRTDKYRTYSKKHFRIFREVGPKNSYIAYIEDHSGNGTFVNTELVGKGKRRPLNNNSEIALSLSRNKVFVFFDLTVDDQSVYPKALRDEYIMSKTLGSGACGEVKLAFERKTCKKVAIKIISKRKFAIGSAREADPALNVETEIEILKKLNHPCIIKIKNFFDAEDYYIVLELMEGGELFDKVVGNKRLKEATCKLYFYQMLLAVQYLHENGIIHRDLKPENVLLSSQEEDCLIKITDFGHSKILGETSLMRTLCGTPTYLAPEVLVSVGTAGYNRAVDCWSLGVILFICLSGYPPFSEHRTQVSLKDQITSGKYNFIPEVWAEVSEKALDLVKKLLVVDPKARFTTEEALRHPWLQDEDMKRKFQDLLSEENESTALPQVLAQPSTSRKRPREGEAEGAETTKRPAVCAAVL
UniProt P41240: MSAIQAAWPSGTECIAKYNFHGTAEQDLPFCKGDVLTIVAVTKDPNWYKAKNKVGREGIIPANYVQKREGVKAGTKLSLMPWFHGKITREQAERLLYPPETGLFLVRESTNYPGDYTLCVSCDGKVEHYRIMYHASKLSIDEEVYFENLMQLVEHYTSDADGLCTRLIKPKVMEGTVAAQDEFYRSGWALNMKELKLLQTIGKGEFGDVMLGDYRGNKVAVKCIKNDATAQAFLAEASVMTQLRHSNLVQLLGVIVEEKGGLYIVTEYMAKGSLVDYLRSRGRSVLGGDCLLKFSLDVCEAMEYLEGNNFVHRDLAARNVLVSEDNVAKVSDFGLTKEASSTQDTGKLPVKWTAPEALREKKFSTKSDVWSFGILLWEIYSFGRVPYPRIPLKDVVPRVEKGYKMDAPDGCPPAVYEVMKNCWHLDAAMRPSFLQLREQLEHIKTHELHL
UniProt P48729: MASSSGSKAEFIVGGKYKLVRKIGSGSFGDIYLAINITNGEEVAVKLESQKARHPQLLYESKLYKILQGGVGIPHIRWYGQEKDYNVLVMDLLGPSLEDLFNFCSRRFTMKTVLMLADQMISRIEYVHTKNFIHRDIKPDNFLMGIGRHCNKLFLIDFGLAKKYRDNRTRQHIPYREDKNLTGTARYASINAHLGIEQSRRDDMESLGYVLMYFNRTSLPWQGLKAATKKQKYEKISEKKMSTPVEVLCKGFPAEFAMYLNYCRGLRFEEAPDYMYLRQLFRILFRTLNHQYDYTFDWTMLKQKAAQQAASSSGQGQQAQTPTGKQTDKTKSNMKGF
UniProt P48730: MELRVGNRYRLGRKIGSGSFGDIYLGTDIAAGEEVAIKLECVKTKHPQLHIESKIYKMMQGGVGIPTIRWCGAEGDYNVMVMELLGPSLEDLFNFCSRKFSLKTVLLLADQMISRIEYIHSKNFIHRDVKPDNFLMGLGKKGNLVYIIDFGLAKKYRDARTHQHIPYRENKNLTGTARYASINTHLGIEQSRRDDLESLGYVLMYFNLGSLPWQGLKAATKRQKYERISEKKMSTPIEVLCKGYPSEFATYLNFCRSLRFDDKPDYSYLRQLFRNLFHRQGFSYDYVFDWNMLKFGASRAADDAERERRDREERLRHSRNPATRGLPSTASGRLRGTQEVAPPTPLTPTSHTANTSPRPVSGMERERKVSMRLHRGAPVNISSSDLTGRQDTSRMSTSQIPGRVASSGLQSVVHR
UniProt Q08345: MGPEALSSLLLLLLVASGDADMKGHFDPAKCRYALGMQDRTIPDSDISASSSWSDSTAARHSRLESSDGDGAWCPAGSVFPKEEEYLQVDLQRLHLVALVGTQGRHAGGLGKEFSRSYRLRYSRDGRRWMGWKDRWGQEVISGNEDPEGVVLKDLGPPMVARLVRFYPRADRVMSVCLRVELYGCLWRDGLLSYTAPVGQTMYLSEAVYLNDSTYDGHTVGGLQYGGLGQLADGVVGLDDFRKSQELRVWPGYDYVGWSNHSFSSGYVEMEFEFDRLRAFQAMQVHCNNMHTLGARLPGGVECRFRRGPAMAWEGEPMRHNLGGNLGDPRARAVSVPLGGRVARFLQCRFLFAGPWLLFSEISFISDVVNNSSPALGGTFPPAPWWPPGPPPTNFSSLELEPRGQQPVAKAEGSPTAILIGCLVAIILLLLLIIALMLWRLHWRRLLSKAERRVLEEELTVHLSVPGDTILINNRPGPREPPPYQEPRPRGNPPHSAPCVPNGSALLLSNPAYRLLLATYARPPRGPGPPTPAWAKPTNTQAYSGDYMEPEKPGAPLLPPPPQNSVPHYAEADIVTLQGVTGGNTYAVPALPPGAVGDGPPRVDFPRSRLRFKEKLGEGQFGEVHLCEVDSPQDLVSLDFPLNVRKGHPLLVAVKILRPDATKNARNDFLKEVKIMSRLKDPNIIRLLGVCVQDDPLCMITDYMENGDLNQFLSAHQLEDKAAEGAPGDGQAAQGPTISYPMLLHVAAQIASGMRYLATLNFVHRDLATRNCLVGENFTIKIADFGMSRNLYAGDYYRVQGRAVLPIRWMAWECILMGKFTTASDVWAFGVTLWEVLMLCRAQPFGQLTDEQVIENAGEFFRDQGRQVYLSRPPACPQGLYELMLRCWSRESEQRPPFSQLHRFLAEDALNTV

Legend:
Experiment in all cases: kinase-Nluc reporter destabilization hit call (1 = scored as downregulated) (binary); higher = compound decreases kinase abundance
Conditions in all cases: K562; 2-18 h
[1] = test system: BRAF_V600E
[2] = molecular target: BTK (UniProt Q06187)
[3] = molecular target: CAMK2A (UniProt Q9UQM7)
[4] = molecular target: CAMK2G (UniProt Q13555)
[5] = molecular target: CDK10 (UniProt Q15131)
[6] = molecular target: CDK2 (UniProt P24941)
[7] = molecular target: CDK3 (UniProt Q00526)
[8] = molecular target: CDK4 (UniProt P11802)
[9] = molecular target: CDK5 (UniProt Q00535)
[10] = molecular target: CDK6 (UniProt Q00534)
[11] = molecular target: CDK7 (UniProt P50613)
[12] = molecular target: CDK9 (UniProt P50750)
[13] = molecular target: CHEK2 (UniProt O96017)
[14] = molecular target: CSF1R (UniProt P07333)
[15] = molecular target: CSK (UniProt P41240)
[16] = molecular target: CSNK1A1 (UniProt P48729)
[17] = molecular target: CSNK1D (UniProt P48730)
[18] = molecular target: DDR1 (UniProt Q08345)
[19] = molecular target: DYRK1B (UniProt Q9Y463)
[20] = molecular target: DYRK2 (UniProt Q92630)

Compound | kinase-Nluc reporter destabilization hit call [1] | kinase-Nluc reporter destabilization hit call [2] | kinase-Nluc reporter destabilization hit call [3] | kinase-Nluc reporter destabilization hit call [4] | kinase-Nluc reporter destabilization hit call [5] | kinase-Nluc reporter destabilization hit call [6] | kinase-Nluc reporter destabilization hit call [7] | kinase-Nluc reporter destabilization hit call [8] | kinase-Nluc reporter destabilization hit call [9] | kinase-Nluc reporter destabilization hit call [10] | kinase-Nluc reporter destabilization hit call [11] | kinase-Nluc reporter destabilization hit call [12] | kinase-Nluc reporter destabilization hit call [13] | kinase-Nluc reporter destabilization hit call [14] | kinase-Nluc reporter destabilization hit call [15] | kinase-Nluc reporter destabilization hit call [16] | kinase-Nluc reporter destabilization hit call [17] | kinase-Nluc reporter destabilization hit call [18] | kinase-Nluc reporter destabilization hit call [19] | kinase-Nluc reporter destabilization hit call [20]
Cn1ncc2cc(-c3cnc(N)c(Cl)c3N3CCC4(CCNC4=O)CC3)ccc21 (10 µM) | inactive: 0 | inactive: 0 | inactive: 0 | inactive: 0 | inactive: 0 | inactive: 0 | inactive: 0 | inactive: 0 | inactive: 0 | inactive: 0 | inactive: 0 | inactive: 0 | inactive: 0 | inactive: 0 | inactive: 0 | inactive: 0 | inactive: 0 | inactive: 0 | inactive: 0 | inactive: 0
O=C1NC(=O)/C(=C/c2ccc3nccc(-c4ccncc4)c3c2)S1 (10 µM) | inactive: 0 | inactive: 0 | inactive: 0 | inactive: 0 | inactive: 0 | inactive: 0 | inactive: 0 | inactive: 0 | inactive: 0 | inactive: 0 | inactive: 0 | inactive: 0 | inactive: 0 | inactive: 0 | inactive: 0 | inactive: 0 | inactive: 0 | inactive: 0 | inactive: 0 | inactive: 0
Cn1cc(C2=C(c3cn(CCCSC(=N)N)c4ccccc34)C(=O)NC2=O)c2ccccc21 [Ro 31-8220 (mesylate)] (2.5 µM) | inactive: 0 | inactive: 0 | inactive: 0 | inactive: 0 | inactive: 0 | inactive: 0 | inactive: 0 | inactive: 0 | inactive: 0 | inactive: 0 | inactive: 0 | active: 1 | inactive: 0 | inactive: 0 | inactive: 0 | inactive: 0 | inactive: 0 | inactive: 0 | inactive: 0 | inactive: 0
COc1cc(N2CCOCC2)ccc1NC(=O)c1csc(-c2cccnc2)n1 [IRAK inhibitor 6] (10 µM) | inactive: 0 | inactive: 0 | inactive: 0 | inactive: 0 | inactive: 0 | inactive: 0 | inactive: 0 | inactive: 0 | inactive: 0 | inactive: 0 | inactive: 0 | inactive: 0 | inactive: 0 | inactive: 0 | inactive: 0 | inactive: 0 | inactive: 0 | inactive: 0 | inactive: 0 | inactive: 0
CC/C(=N\NC(=O)c1ccnc(NCCCN2CCOCC2)c1)c1ccc(Cl)cc1O (2.5 µM) | inactive: 0 | inactive: 0 | inactive: 0 | inactive: 0 | inactive: 0 | inactive: 0 | inactive: 0 | inactive: 0 | inactive: 0 | inactive: 0 | inactive: 0 | inactive: 0 | inactive: 0 | inactive: 0 | inactive: 0 | inactive: 0 | inactive: 0 | inactive: 0 | inactive: 0 | inactive: 0
O=C(Nc1nc2ccc(NC(=O)C34CC5CC(CC(C5)C3)C4)cc2s1)c1ccccc1 (10 µM) | inactive: 0 | inactive: 0 | inactive: 0 | inactive: 0 | inactive: 0 | inactive: 0 | inactive: 0 | inactive: 0 | inactive: 0 | inactive: 0 | inactive: 0 | inactive: 0 | inactive: 0 | inactive: 0 | inactive: 0 | inactive: 0 | inactive: 0 | inactive: 0 | inactive: 0 | inactive: 0
Cc1cc2sc(NC(=O)Cc3ccccc3)nc2cc1Cl (10 µM) | inactive: 0 | inactive: 0 | inactive: 0 | inactive: 0 | inactive: 0 | inactive: 0 | inactive: 0 | inactive: 0 | inactive: 0 | inactive: 0 | inactive: 0 | inactive: 0 | inactive: 0 | inactive: 0 | inactive: 0 | inactive: 0 | inactive: 0 | inactive: 0 | inactive: 0 | inactive: 0
CC(C)C[C@@H](C(=O)Nc1ccn(C[C@@H](O)CO)n1)N1CC(Oc2ccccc2Cl)=CC1=O [Dorzagliatin] (10 µM) | inactive: 0 | inactive: 0 | inactive: 0 | inactive: 0 | inactive: 0 | inactive: 0 | inactive: 0 | inactive: 0 | inactive: 0 | inactive: 0 | inactive: 0 | inactive: 0 | inactive: 0 | inactive: 0 | inactive: 0 | inactive: 0 | inactive: 0 | inactive: 0 | inactive: 0 | inactive: 0
CN(C)S(=O)(=O)c1ccc2c(c1)/C(=C/c1cc3c([nH]1)CCCC3)C(=O)N2 (2.5 µM) | inactive: 0 | inactive: 0 | inactive: 0 | inactive: 0 | inactive: 0 | inactive: 0 | inactive: 0 | inactive: 0 | inactive: 0 | inactive: 0 | inactive: 0 | inactive: 0 | inactive: 0 | inactive: 0 | inactive: 0 | inactive: 0 | inactive: 0 | active: 1 | inactive: 0 | inactive: 0
O=C(N[C@@H](C1CC1)C(F)(F)F)c1cc(-c2cnn3cc(-c4ccc(F)cc4)cnc23)cs1 (10 µM) | inactive: 0 | inactive: 0 | inactive: 0 | inactive: 0 | inactive: 0 | inactive: 0 | inactive: 0 | inactive: 0 | inactive: 0 | inactive: 0 | inactive: 0 | inactive: 0 | inactive: 0 | inactive: 0 | inactive: 0 | inactive: 0 | inactive: 0 | inactive: 0 | inactive: 0 | inactive: 0
Nc1c(C(=O)NCc2ccc(C(=O)NCCCC3CCCCC3)cc2)cnn1-c1ccccc1 (2.5 µM) | inactive: 0 | inactive: 0 | inactive: 0 | inactive: 0 | inactive: 0 | inactive: 0 | inactive: 0 | inactive: 0 | inactive: 0 | inactive: 0 | inactive: 0 | inactive: 0 | inactive: 0 | inactive: 0 | inactive: 0 | inactive: 0 | inactive: 0 | inactive: 0 | inactive: 0 | inactive: 0
CC(=O)N1CCC(c2cc(-c3ccc(NC(=O)c4cccn(-c5ccc(F)cc5)c4=O)cc3F)c3c(N)ncnn23)CC1 (0.5 µM) | inactive: 0 | inactive: 0 | inactive: 0 | inactive: 0 | inactive: 0 | inactive: 0 | inactive: 0 | inactive: 0 | inactive: 0 | inactive: 0 | inactive: 0 | inactive: 0 | inactive: 0 | inactive: 0 | inactive: 0 | inactive: 0 | inactive: 0 | inactive: 0 | inactive: 0 | inactive: 0
COc1ccc2cc(-c3nc(-c4ccc([S+](C)[O-])cc4)[nH]c3-c3ccncc3)ccc2c1 (stereo not given) [Tie2 kinase inhibitor 1] (2.5 µM) | inactive: 0 | inactive: 0 | inactive: 0 | inactive: 0 | inactive: 0 | inactive: 0 | inactive: 0 | inactive: 0 | inactive: 0 | inactive: 0 | inactive: 0 | inactive: 0 | inactive: 0 | inactive: 0 | inactive: 0 | inactive: 0 | inactive: 0 | inactive: 0 | inactive: 0 | inactive: 0
Nc1nc(N)c2nc(-c3cccc(O)c3)cnc2n1 (10 µM) | inactive: 0 | inactive: 0 | inactive: 0 | inactive: 0 | inactive: 0 | inactive: 0 | inactive: 0 | inactive: 0 | inactive: 0 | inactive: 0 | inactive: 0 | inactive: 0 | inactive: 0 | inactive: 0 | inactive: 0 | inactive: 0 | inactive: 0 | inactive: 0 | inactive: 0 | inactive: 0
CC(C)CNc1ccnc(NCc2csc(-c3ccccc3)n2)n1 [KHS101 hydrochloride] (2.5 µM) | inactive: 0 | inactive: 0 | inactive: 0 | inactive: 0 | inactive: 0 | inactive: 0 | inactive: 0 | inactive: 0 | inactive: 0 | inactive: 0 | inactive: 0 | inactive: 0 | inactive: 0 | inactive: 0 | inactive: 0 | inactive: 0 | inactive: 0 | inactive: 0 | inactive: 0 | inactive: 0
C=CC(=O)Nc1cccc(CNc2nc(Nc3ccc(N4CCN(C)CC4)cc3OC)ncc2Cl)c1 (10 µM) | inactive: 0 | inactive: 0 | inactive: 0 | inactive: 0 | inactive: 0 | inactive: 0 | inactive: 0 | inactive: 0 | inactive: 0 | inactive: 0 | inactive: 0 | inactive: 0 | inactive: 0 | inactive: 0 | inactive: 0 | inactive: 0 | inactive: 0 | inactive: 0 | inactive: 0 | inactive: 0
CS(=O)(=O)c1ccc(-c2cnc(N)c(-c3ccc(C(F)(F)F)nc3)c2)cc1 (10 µM) | inactive: 0 | inactive: 0 | inactive: 0 | inactive: 0 | inactive: 0 | inactive: 0 | inactive: 0 | inactive: 0 | inactive: 0 | inactive: 0 | inactive: 0 | inactive: 0 | inactive: 0 | inactive: 0 | inactive: 0 | inactive: 0 | inactive: 0 | inactive: 0 | inactive: 0 | inactive: 0
Cc1ccc(NC(=O)c2ccnc(C(F)(F)F)c2)cc1-c1cc(OCCO)nc(N2CCOCC2)c1 (10 µM) | inactive: 0 | inactive: 0 | inactive: 0 | inactive: 0 | inactive: 0 | inactive: 0 | inactive: 0 | inactive: 0 | inactive: 0 | inactive: 0 | inactive: 0 | inactive: 0 | inactive: 0 | inactive: 0 | inactive: 0 | inactive: 0 | inactive: 0 | inactive: 0 | inactive: 0 | inactive: 0

Pulled by compound from the entries so far:
Compound | kinase-Nluc reporter destabilization hit call [1] | kinase-Nluc reporter destabilization hit call [2] | kinase-Nluc reporter destabilization hit call [3] | kinase-Nluc reporter destabilization hit call [4] | kinase-Nluc reporter destabilization hit call [5] | kinase-Nluc reporter destabilization hit call [6] | kinase-Nluc reporter destabilization hit call [7] | kinase-Nluc reporter destabilization hit call [8] | kinase-Nluc reporter destabilization hit call [9] | kinase-Nluc reporter destabilization hit call [10] | kinase-Nluc reporter destabilization hit call [11] | kinase-Nluc reporter destabilization hit call [12] | kinase-Nluc reporter destabilization hit call [13] | kinase-Nluc reporter destabilization hit call [14] | kinase-Nluc reporter destabilization hit call [15] | kinase-Nluc reporter destabilization hit call [16] | kinase-Nluc reporter destabilization hit call [17] | kinase-Nluc reporter destabilization hit call [18] | kinase-Nluc reporter destabilization hit call [19] | kinase-Nluc reporter destabilization hit call [20]
COc1cc(N2CCOCC2)ccc1NC(=O)c1csc(-c2cccnc2)n1 [IRAK inhibitor 6] (10 µM) | inactive: 0 | inactive: 0 | inactive: 0 | inactive: 0 | inactive: 0 | inactive: 0 | inactive: 0 | inactive: 0 | inactive: 0 | inactive: 0 | inactive: 0 | inactive: 0 | inactive: 0 | inactive: 0 | inactive: 0 | inactive: 0 | inactive: 0 | inactive: 0 | inactive: 0 | inactive: 0
C=CC(=O)Nc1cccc(CNc2nc(Nc3ccc(N4CCN(C)CC4)cc3OC)ncc2Cl)c1 (10 µM) | inactive: 0 | inactive: 0 | inactive: 0 | inactive: 0 | inactive: 0 | inactive: 0 | inactive: 0 | inactive: 0 | inactive: 0 | inactive: 0 | inactive: 0 | inactive: 0 | inactive: 0 | inactive: 0 | inactive: 0 | inactive: 0 | inactive: 0 | inactive: 0 | inactive: 0 | inactive: 0
